PubChem BioAssay AID686937 – Drosophila RNAi Screening Center | 2013
The screen tested about 23,000 reagents; this is an unselected part of those that have a named target and a result. 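Reduced-secretion tags in replicate 1 do not always agree with the z-scores; no criterion for assigning the tags was given.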 Names joined by + are all predicted targets of the reagent. Not all columns of the deposit are shown. The record does not give: the amount of reagent.

- Assay: 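Genes in the fly needed for secretion of protein constitutively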 (primary screen)
- Cell system: Drosophila S2 cells expressing secreted horseradish peroxidase
- Reagents: long dsRNA against Drosophila genes
- Time to read-out: about 5.5 days (5 days dsRNA, then 12 h reporter induction)
- Conditions: reporter expression induced after 5 days of dsRNA, read 12 h later; inducer not stated
- Read-out: 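After 5 days of dsRNA and 12 h of reporter induction, medium peroxidase read by chemiluminescence and scored as per-plate z-score; higher values mean more reporter released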
- Scale: z-score: higher = more reporter secreted into medium

For koko + Vti1b [DRSC16283], the entry reads z-score, replicate 1 = 0.05. After knock-down of koko + Vti1b [DRSC16284] the results were z-score, replicate 1 = 0.35. After knock-down of CG2116 [DRSC18206], the screen gave z-score, replicate 1 = 0.39. CG34282 [DRSC16298] scored z-score, replicate 1 = 0.39. Against ClpX [DRSC15592] the deposit lists z-score, replicate 1 = 0.52. Knock-down of CG15543 [DRSC15081] resulted in: z-score, replicate 1 = 0.48.

b [DRSC03487] showed z-score, replicate 1 = 0.19. For CG17364 [DRSC10269], the entry reads z-score, replicate 1 = 0.5. Knock-down of CG17364 [DRSC10270] came out at: z-score, replicate 1 = 0.25. CG17364 [DRSC22689] showed z-score, replicate 1 = 0.43. Against tapas [DRSC05950] the deposit lists z-score, replicate 1 = 0.3. CG14543 [DRSC14887] showed z-score, replicate 1 = -0.13.

Ppa [DRSC04598] scored z-score, replicate 1 = 0.22. With knock-down of CG32625 [DRSC18994], the record shows z-score, replicate 1 = 0.51. Cerk [DRSC12285] gave z-score, replicate 1 = 0.22. Against myo [DRSC17174], the values are z-score, replicate 1 = 0.41.

Copied from the entries so far (2 entries):
CG17364 [DRSC10270] | z-score, replicate 1 = 0.25
CG17364 [DRSC22689] | z-score, replicate 1 = 0.43
